# Experimental data taken from PMC6025706.
# The chains behind the UniProt entries cited, without tags or fusion partners. Where a name states a change or a piece, a line headed by the entry shows the natural chain unless it says otherwise. A line that says so, or that is headed by a name, gives the form on record, which may keep a tag or linker.
# UniProt P61586: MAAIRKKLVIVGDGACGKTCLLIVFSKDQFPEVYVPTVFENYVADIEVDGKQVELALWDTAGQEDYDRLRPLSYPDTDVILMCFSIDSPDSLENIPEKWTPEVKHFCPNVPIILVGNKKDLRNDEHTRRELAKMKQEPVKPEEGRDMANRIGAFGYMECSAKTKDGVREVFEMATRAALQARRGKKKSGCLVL
# HA-tagged RhoA(V14) (P61586, form named): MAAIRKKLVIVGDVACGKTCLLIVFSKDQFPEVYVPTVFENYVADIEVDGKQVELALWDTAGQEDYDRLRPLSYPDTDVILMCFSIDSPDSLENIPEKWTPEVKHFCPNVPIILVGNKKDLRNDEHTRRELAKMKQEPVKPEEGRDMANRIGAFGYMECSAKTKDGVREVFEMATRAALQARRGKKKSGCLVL
# GFP-tagged SV1 (1-825) (O95425-2, form named): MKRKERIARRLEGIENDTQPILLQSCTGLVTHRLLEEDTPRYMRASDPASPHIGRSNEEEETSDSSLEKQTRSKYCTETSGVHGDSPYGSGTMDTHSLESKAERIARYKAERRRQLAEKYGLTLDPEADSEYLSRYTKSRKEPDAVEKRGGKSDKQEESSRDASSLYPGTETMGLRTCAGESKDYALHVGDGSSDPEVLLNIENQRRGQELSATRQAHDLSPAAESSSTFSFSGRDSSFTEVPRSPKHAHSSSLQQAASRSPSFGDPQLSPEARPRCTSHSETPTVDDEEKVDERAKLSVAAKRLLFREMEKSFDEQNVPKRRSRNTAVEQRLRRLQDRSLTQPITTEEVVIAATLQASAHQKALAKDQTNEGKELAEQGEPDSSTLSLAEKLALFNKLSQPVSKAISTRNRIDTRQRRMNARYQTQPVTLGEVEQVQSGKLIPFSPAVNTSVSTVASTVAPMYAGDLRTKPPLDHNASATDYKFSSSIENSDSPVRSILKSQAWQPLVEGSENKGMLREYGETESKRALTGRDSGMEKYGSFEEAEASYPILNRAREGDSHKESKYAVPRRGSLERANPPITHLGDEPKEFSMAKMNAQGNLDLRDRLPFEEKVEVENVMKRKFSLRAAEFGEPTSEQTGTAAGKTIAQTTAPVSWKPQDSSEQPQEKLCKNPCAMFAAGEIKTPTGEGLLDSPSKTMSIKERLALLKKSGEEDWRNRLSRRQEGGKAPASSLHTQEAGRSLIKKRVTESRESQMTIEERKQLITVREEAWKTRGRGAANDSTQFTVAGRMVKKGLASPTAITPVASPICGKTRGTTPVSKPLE
# Results are given in words; binding and its absence hold for the method and conditions named. In cells and extracts the contact can be indirect. Some results given as binding are weak or reduced against the parent protein; the word gives no strength.
# Columns and labels:
# [1] = target: HA-tagged RhoA(WT) (UniProt P61586); assay: co-IP; HEK293 cells transfected with GFP-tagged supervillin constructs and HA-tagged RhoA; lysates precipitated with anti-HA magnetic beads; immunoblot with anti-HA or anti-GFP
# [2] = target: HA-tagged RhoA(V14) (UniProt P61586); assay: as above
substance,measurement,setting,value
GFP-tagged SV1 (1-825) (from UniProt O95425-2 1-825) (domain or fragment),binding,[1],binds
same,binding,[2],binds
